Assay results: the supplement of paper PMC10849652
Some of the results follow.

Amino acid sequences for entries named in this document (tags omitted). A change or cut given only in a name is not applied to a line headed by its entry.
UniProt P20248, whole entry, looked up: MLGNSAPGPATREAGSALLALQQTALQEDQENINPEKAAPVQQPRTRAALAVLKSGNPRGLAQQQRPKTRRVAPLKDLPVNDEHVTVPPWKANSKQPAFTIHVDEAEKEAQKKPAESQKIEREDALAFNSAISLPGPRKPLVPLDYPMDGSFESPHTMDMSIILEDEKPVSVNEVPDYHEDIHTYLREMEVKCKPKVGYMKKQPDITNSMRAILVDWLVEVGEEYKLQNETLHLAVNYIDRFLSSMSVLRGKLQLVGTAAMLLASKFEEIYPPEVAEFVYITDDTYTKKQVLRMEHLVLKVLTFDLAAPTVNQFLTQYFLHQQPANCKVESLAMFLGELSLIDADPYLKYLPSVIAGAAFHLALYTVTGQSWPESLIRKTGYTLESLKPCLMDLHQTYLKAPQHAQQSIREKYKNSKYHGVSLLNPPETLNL
UniProt Q13042, whole entry, looked up: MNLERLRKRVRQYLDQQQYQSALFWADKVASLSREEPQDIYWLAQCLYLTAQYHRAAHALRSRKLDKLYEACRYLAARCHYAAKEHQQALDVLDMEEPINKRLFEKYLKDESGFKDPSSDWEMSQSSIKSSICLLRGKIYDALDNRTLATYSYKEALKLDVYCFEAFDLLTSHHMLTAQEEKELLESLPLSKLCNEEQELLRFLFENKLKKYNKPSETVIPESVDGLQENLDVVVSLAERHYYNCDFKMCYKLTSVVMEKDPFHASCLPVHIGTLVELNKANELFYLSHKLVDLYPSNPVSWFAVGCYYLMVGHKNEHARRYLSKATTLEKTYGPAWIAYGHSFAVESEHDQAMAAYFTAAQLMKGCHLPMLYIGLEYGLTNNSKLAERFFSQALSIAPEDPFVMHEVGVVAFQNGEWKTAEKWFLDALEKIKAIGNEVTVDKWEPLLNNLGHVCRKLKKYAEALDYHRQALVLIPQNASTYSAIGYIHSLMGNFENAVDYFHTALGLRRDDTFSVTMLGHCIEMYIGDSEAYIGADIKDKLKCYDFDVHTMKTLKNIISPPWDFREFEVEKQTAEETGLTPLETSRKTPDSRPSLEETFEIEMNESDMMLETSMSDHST
UniProt O60563, whole entry, looked up: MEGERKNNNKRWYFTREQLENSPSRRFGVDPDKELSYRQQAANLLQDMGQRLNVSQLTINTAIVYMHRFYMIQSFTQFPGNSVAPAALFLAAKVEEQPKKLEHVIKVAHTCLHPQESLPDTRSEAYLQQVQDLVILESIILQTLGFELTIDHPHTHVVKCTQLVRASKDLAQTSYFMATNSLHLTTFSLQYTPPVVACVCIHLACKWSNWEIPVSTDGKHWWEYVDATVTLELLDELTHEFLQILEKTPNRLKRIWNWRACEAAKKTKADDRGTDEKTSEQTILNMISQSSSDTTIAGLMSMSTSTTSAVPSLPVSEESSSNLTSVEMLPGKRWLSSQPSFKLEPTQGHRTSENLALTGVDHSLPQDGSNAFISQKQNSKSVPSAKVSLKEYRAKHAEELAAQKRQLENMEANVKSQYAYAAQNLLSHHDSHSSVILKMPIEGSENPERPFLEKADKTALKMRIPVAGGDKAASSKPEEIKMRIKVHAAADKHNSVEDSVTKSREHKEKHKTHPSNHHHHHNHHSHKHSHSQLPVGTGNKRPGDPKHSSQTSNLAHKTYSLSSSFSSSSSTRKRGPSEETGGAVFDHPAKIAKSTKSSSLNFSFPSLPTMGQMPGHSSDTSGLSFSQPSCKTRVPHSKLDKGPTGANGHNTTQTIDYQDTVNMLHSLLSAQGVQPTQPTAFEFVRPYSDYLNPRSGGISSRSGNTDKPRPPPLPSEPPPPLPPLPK
UniProt P48509: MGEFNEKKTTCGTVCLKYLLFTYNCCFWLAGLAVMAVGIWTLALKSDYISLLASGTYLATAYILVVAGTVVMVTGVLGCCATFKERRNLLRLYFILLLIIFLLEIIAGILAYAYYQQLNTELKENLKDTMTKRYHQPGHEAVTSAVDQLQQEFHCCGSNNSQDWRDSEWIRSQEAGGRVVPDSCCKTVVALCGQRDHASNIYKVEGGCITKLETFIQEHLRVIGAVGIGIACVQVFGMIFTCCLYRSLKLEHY
UniProt P60033: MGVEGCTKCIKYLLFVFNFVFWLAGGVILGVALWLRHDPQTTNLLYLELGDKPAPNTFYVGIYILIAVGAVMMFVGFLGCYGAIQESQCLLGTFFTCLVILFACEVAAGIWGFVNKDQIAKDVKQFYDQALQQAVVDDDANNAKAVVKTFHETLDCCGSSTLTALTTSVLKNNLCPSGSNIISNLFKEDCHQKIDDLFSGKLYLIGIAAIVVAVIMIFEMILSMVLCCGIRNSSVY
UniProt P14635, whole entry, looked up: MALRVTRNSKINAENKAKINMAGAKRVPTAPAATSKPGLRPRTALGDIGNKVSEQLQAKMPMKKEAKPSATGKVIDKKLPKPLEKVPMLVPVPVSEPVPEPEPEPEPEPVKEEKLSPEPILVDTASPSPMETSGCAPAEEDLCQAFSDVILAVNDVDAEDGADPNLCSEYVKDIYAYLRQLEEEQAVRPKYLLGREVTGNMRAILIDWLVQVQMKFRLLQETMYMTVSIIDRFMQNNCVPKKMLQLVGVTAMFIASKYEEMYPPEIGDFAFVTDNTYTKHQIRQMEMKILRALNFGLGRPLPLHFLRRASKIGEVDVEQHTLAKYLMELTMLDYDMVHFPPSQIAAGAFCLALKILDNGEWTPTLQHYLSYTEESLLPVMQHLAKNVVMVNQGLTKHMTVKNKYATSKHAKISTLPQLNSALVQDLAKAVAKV
UniProt Q6PII3: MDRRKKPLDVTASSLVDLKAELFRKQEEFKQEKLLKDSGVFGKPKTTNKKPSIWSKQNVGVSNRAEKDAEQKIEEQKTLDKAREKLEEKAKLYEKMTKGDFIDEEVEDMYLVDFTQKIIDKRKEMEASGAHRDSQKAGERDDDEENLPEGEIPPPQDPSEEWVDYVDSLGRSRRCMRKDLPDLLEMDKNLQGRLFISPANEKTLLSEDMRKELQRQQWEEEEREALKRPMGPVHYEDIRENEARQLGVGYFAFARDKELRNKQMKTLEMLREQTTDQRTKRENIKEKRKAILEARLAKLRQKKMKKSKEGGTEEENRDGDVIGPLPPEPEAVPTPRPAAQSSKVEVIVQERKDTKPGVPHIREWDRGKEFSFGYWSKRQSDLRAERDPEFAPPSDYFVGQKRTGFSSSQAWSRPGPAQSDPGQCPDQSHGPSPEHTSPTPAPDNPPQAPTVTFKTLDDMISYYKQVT
UniProt O95810: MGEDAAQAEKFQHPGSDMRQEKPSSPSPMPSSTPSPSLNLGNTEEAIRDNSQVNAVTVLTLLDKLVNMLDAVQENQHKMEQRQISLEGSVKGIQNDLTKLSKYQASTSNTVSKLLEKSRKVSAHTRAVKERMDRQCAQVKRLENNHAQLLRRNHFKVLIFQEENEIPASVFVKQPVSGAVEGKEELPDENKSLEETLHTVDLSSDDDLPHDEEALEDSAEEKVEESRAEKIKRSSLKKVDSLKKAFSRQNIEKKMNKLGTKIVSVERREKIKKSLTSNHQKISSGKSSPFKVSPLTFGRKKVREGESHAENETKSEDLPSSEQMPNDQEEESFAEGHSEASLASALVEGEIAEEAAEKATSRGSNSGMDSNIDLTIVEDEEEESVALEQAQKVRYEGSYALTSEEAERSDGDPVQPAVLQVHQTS
UniProt P60953, whole entry, looked up: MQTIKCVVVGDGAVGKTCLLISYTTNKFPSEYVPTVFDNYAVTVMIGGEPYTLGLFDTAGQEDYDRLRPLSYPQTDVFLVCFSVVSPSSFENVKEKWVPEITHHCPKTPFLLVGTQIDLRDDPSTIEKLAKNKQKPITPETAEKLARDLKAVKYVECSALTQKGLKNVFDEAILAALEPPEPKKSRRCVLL
UniProt P45973, whole entry, looked up: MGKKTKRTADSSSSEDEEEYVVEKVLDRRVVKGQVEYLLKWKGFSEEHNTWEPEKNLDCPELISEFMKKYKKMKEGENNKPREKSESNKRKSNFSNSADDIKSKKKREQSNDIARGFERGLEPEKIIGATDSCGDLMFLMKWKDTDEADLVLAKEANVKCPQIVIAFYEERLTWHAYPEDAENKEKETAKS
UniProt Q9Y3X0: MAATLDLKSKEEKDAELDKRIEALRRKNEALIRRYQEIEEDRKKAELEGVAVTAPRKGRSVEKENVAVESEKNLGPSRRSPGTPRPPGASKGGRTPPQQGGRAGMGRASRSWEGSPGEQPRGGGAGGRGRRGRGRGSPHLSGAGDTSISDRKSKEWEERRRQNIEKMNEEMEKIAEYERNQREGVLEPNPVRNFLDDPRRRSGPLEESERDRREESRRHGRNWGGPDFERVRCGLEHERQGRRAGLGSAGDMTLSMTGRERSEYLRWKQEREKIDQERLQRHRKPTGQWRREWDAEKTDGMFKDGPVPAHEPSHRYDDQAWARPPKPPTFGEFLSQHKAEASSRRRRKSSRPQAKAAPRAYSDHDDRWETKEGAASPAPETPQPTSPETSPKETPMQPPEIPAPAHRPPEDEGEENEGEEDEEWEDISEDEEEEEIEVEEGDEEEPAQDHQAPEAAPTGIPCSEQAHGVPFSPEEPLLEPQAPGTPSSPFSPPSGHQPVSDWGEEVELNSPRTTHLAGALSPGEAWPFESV
UniProt P20810: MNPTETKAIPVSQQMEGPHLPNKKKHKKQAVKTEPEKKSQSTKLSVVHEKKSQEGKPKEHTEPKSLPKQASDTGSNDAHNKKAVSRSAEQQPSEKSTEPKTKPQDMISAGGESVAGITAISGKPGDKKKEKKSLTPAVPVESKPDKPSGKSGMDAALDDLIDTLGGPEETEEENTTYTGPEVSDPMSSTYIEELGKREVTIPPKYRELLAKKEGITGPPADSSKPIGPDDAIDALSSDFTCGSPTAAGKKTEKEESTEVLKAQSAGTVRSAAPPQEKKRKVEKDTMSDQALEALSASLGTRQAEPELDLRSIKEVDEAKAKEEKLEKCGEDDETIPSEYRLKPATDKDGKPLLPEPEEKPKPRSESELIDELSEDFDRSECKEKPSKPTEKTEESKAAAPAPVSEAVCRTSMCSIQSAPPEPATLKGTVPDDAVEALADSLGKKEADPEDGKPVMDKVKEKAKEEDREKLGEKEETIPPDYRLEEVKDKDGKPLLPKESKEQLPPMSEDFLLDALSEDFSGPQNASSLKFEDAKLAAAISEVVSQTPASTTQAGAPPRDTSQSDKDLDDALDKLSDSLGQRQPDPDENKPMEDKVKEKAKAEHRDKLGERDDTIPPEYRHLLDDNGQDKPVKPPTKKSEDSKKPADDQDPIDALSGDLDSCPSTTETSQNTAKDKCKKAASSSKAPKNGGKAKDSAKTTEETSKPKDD
UniProt O15234, whole entry, looked up: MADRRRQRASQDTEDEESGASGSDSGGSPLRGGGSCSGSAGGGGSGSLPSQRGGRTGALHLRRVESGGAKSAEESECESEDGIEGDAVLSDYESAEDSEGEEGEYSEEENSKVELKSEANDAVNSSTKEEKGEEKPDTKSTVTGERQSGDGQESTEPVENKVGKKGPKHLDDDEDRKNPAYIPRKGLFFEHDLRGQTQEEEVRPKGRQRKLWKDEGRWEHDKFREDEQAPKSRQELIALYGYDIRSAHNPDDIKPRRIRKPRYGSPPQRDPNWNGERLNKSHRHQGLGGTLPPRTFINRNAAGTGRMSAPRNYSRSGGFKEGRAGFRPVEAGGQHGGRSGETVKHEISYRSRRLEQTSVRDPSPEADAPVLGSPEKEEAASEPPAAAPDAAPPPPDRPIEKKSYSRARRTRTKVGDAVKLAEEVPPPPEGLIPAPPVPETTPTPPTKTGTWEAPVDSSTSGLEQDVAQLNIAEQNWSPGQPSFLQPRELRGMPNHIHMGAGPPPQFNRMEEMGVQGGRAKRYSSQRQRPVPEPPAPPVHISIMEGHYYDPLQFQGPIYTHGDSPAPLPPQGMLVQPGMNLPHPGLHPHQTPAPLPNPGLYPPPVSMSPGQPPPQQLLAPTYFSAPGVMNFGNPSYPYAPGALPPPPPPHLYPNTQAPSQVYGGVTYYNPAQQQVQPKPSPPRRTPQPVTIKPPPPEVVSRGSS
UniProt O15446, whole entry, looked up: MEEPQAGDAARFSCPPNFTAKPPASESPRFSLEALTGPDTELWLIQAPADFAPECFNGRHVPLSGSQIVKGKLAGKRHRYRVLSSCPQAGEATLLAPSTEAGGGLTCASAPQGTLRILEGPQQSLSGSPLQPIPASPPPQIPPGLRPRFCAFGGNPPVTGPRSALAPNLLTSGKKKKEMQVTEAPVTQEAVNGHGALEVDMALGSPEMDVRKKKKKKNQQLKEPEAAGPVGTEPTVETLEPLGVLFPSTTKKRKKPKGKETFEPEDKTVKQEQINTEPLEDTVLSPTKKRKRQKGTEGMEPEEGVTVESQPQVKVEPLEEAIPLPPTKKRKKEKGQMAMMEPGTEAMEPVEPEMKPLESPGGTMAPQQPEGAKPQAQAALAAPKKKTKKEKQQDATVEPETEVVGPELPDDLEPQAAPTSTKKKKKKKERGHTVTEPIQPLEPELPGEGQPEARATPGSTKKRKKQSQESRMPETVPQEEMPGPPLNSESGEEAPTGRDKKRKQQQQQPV

Columns and labels:
Experiment in all cases: log2 fold change, soluble protein after heating vs DMSO (PISA); higher = thermal stabilisation; K562 cells, 10 uM, 30 min; active = over 0.2 and 3.5 SD of the protein, either way, in both replicates (recomputed)
bafetinib = compound: Cc1ccc(NC(=O)c2ccc(CN3CC[C@H](N(C)C)C3)c(C(F)(F)F)c2)cc1Nc1nccc(-c2cncnc2)n1 [bafetinib]
Summary of the method: (§1)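 Aliquots of K562 cells (2×10^6 cells/mL) treated with 10 μM compound for 30 min were heated for 3 min over 48°C-58°C. After pooling and extraction in PBS with 0.5% NP-40 at 4°C, soluble protein from a 21,000xg, 90 min spin was quantified by TMTpro 16plex LC-MS/MS with channel sums equalised. Thermal stability is expressed against control samples, from duplicates, as a log2 fold change.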

[1] = compound: Cc1cccc(CC(=O)N2CCc3c2ccc(-c2cn(C)c4ncnc(N)c24)c3F)n1
Summary of the method: as §1

nilotinib = compound: Cc1cn(-c2cc(NC(=O)c3ccc(C)c(Nc4nccc(-c5cccnc5)n4)c3)cc(C(F)(F)F)c2)cn1 [nilotinib]
Summary of the method: as §1

[2] = compound: Cc1nc(Nc2n[nH]c3c2CN(C(=O)N[C@H](CN(C)C)c2ccccc2)C3(C)C)c2sccc2n1
Summary of the method: as §1

dasatinib = compound: Cc1nc(Nc2ncc(C(=O)Nc3c(C)cccc3Cl)s2)cc(N2CCN(CCO)CC2)n1 [dasatinib]
Summary of the method: as §1

[3] = compound: Cc1ncc(-c2ccnc(Nc3ccc(S(C)(=O)=O)cc3)n2)n1C(C)C
Summary of the method: as §1

[4] = compound: Cn1cc(-c2ccc3c(c2)CCN3C(=O)Cc2cccc(C(F)(F)F)c2)c2c(N)ncnc21
Summary of the method: as §1

[5] = compound: Cn1cc(-c2ccc3nnc(C(F)(F)c4ccc5ncccc5c4)n3n2)cn1
Summary of the method: as §1

tipifarnib = compound: Cn1cncc1[C@@](N)(c1ccc(Cl)cc1)c1ccc2c(c1)c(-c1cccc(Cl)c1)cc(=O)n2C [tipifarnib]
Summary of the method: as §1

mubritinib = compound: FC(F)(F)c1ccc(/C=C/c2nc(COc3ccc(CCCCn4ccnn4)cc3)co2)cc1 [mubritinib]
Summary of the method: as §1

[6] = compound: NC(=O)Nc1cc(-c2cccc(F)c2)sc1C(=O)N[C@H]1CCCNC1
Summary of the method: as §1

[7] = compound: NC(=O)c1cnc(N[C@@H]2CCCC[C@@H]2N)nc1Nc1cccc(-n2nccn2)c1
Summary of the method: as §1

[8] = compound: NC1(c2ccc(-c3nc4ccn5c(=O)[nH]nc5c4cc3-c3ccccc3)cc2)CCC1
Summary of the method: as §1

[9] = compound: NCC(=O)Nc1ccc(-n2nc(C(F)(F)F)cc2-c2ccc3c(ccc4ccccc43)c2)cc1
Summary of the method: as §1

entinostat = compound: Nc1ccccc1NC(=O)c1ccc(CNC(=O)OCc2cccnc2)cc1 [entinostat]
Summary of the method: as §1

vorinostat = compound: O=C(CCCCCCC(=O)Nc1ccccc1)NO [vorinostat]
Summary of the method: as §1

citarinostat = compound: O=C(CCCCCCNC(=O)c1cnc(N(c2ccccc2)c2ccccc2Cl)nc1)NO [citarinostat]
Summary of the method: as §1

silmitasertib = compound: O=C(O)c1ccc2c(c1)nc(Nc1cccc(Cl)c1)c1ccncc12 [silmitasertib]
Summary of the method: as §1

[10] = compound: O=C1NC(=O)C(c2cnc3ccccn23)=C1c1cn2c3c(cc(F)cc13)CN(C(=O)N1CCCCC1)CC2
Summary of the method: as §1

[11] = compound: c1cc(OCCN2CCCCC2)cc(-c2n[nH]c3ccc(-c4nnc[nH]4)cc23)c1
Summary of the method: as §1

Measured: log2 fold change

CCNA2 (UniProt P20248)
inactive: bafetinib 0.005 | [1] 0.014 | nilotinib 0.042 | [2] -0.107 | dasatinib -0.042 | [3] 0.009 | [4] 0.016 | [5] -0.02 | tipifarnib 0.009 | mubritinib 0.025 | [6] -0.069 | [7] -0.001 | [8] 0.011 | [9] 0.057 | entinostat 0.052 | vorinostat 0.031 | citarinostat 0.053 | silmitasertib -0.037 | [10] 0.015 | [11] -0.073

CDC16 (UniProt Q13042)
inactive: bafetinib 0.03 | [1] 0.094 | nilotinib -0.022 | [2] 0.005 | dasatinib -0.024 | [3] -0.043 | [4] -0.065 | [5] -0.047 | tipifarnib 0.042 | mubritinib -0.018 | [6] 0.028 | [7] -0.045 | [8] -0.056 | [9] 0.012 | entinostat 0.013 | vorinostat -0.008 | citarinostat 0.039 | silmitasertib 0.045 | [10] 0.022 | [11] -0.061

CCNT1 (UniProt O60563)
inactive: bafetinib 0.062 | [1] 0.036 | nilotinib 0.027 | [2] -0.272 | dasatinib -0.016 | [3] -0.301 | [4] -0.051 | [5] -0.122 | tipifarnib 0.142 | mubritinib -0.093 | [6] -0.027 | [7] -0.03 | [8] -0.021 | [9] -0.02 | entinostat 0.034 | vorinostat 0.176 | citarinostat 0.053 | silmitasertib 0 | [10] 0.047 | [11] -0.094

Retrieved one by one from the entries so far (two):
CDC16 (UniProt Q13042)
inactive: bafetinib 0.03 | [1] 0.094 | nilotinib -0.022 | [2] 0.005 | dasatinib -0.024 | [3] -0.043 | [4] -0.065 | [5] -0.047 | tipifarnib 0.042 | mubritinib -0.018 | [6] 0.028 | [7] -0.045 | [8] -0.056 | [9] 0.012 | entinostat 0.013 | vorinostat -0.008 | citarinostat 0.039 | silmitasertib 0.045 | [10] 0.022 | [11] -0.061

CCNA2 (UniProt P20248)
inactive: bafetinib 0.005 | [1] 0.014 | nilotinib 0.042 | [2] -0.107 | dasatinib -0.042 | [3] 0.009 | [4] 0.016 | [5] -0.02 | tipifarnib 0.009 | mubritinib 0.025 | [6] -0.069 | [7] -0.001 | [8] 0.011 | [9] 0.057 | entinostat 0.052 | vorinostat 0.031 | citarinostat 0.053 | silmitasertib -0.037 | [10] 0.015 | [11] -0.073

The listing continues:

CD151 (UniProt P48509)
inactive: bafetinib 0.135 | [1] 0.015 | nilotinib -0.072 | [2] 0.157 | dasatinib 0.063 | [3] 0.019 | [4] 0.025 | [5] -0.002 | tipifarnib -0.076 | mubritinib -0.092 | [6] -0.054 | [7] 0.139 | [8] 0.125 | [9] 0.024 | entinostat 0.094 | vorinostat -0.025 | citarinostat -0.007 | silmitasertib 0.031 | [10] -0.063 | [11] -0.009

CD81 (UniProt P60033)
inactive: bafetinib 0.089 | [1] -0.026 | nilotinib 0.051 | [2] 0.016 | dasatinib 0.079 | [3] -0.015 | [4] 0.108 | [5] 0.131 | tipifarnib 0.041 | mubritinib 0.05 | [6] -0.051 | [7] 0.222 | [8] 0.21 | [9] 0.231 | entinostat -0.028 | vorinostat -0.074 | citarinostat 0.065 | silmitasertib 0.052 | [10] 0.066 | [11] -0.166

CCNB1 (UniProt P14635)
inactive: bafetinib -0.018 | [1] 0.009 | nilotinib 0.04 | [2] -0.156 | dasatinib 0.02 | [3] -0.025 | [4] 0.006 | [5] 0.003 | tipifarnib 0.02 | mubritinib 0.08 | [6] -0.031 | [7] -0.015 | [8] -0.03 | [9] 0.016 | entinostat -0.002 | vorinostat 0 | citarinostat 0.031 | silmitasertib -0.015 | [10] -0.076 | [11] -0.032

CCDC174 (UniProt Q6PII3)
inactive: bafetinib -0.092 | [1] -0.016 | nilotinib -0.001 | [2] -0.008 | dasatinib 0.007 | [3] 0 | [4] -0.07 | [5] -0.048 | tipifarnib 0.058 | mubritinib -0.002 | [6] 0.042 | [7] -0.007 | [8] 0.014 | [9] 0.004 | entinostat -0.009 | vorinostat 0.002 | citarinostat -0.07 | silmitasertib -0.012 | [10] -0.049 | [11] 0.023

CAVIN2 (UniProt O95810)
inactive: bafetinib 0.091 | [1] 0.011 | nilotinib 0.02 | [2] 0.086 | dasatinib 0.013 | [3] -0.048 | [4] -0.087 | [5] -0.058 | tipifarnib 0.028 | mubritinib -0.034 | [6] 0.048 | [7] -0.014 | [8] -0.002 | [9] 0.051 | entinostat 0.003 | vorinostat 0.009 | citarinostat 0 | silmitasertib 0.023 | [10] 0.103 | [11] -0.17

CDC42 (UniProt P60953)
inactive: bafetinib -0.047 | [1] 0.004 | nilotinib 0.118 | [2] 0.005 | dasatinib -0.071 | [3] 0.008 | [4] 0.102 | [5] -0.015 | tipifarnib -0.097 | mubritinib -0.029 | [6] 0.088 | [7] 0.135 | [8] 0.161 | [9] 0.155 | entinostat -0.022 | vorinostat -0.041 | citarinostat 0 | silmitasertib -0.111 | [10] -0.095 | [11] 0.193

CCDC115 (UniProt Q96NT0)
inactive: bafetinib -0.094 | [1] -0.063 | nilotinib 0.001 | [2] -0.005 | dasatinib -0.003 | [3] -0.038 | [4] 0.037 | [5] 0.013 | tipifarnib 0.023 | mubritinib 0.05 | [6] 0.035 | [7] 0.089 | [8] -0.007 | [9] -0.004 | entinostat 0.01 | vorinostat -0.002 | citarinostat 0.07 | silmitasertib -0.035 | [10] -0.047 | [11] 0.005

CBX5 (UniProt P45973)
inactive: bafetinib -0.019 | [1] 0.01 | nilotinib 0.002 | [2] -0.138 | dasatinib -0.069 | [3] -0.064 | [4] -0.01 | [5] -0.02 | tipifarnib -0.048 | mubritinib 0.062 | [6] -0.066 | [7] -0.027 | [8] -0.025 | [9] -0.106 | entinostat 0.025 | vorinostat 0.113 | citarinostat 0.041 | silmitasertib -0.016 | [10] -0.073 | [11] -0.021

CCDC9 (UniProt Q9Y3X0)
inactive: bafetinib -0.011 | [1] -0.032 | nilotinib 0.002 | [2] 0.117 | dasatinib 0.072 | [3] 0.028 | [4] -0.046 | [5] -0.05 | tipifarnib -0.004 | mubritinib -0.038 | [6] 0.021 | [7] 0.034 | [8] 0.121 | [9] 0.02 | entinostat -0.088 | vorinostat -0.051 | citarinostat -0.069 | silmitasertib -0.051 | [10] 0.021 | [11] -0.015

CAST isoform 6 (UniProt P20810)
inactive: bafetinib -0.042 | [1] -0.064 | nilotinib 0.015 | [2] -0.013 | dasatinib 0.05 | [3] -0.019 | [4] -0.014 | [5] -0.041 | tipifarnib 0.013 | mubritinib 0.01 | [6] -0.002 | [7] -0.028 | [8] 0.031 | [9] -0.005 | entinostat -0.05 | vorinostat -0.046 | citarinostat 0.01 | silmitasertib -0.016 | [10] -0.058 | [11] 0.016

CASC3 (UniProt O15234)
active: [2] 0.481 | [3] 0.511
inactive: bafetinib -0.064 | [1] -0.069 | nilotinib -0.064 | dasatinib 0.031 | [4] -0.079 | [5] -0.069 | tipifarnib 0.004 | mubritinib 0.084 | [6] 0.015 | [7] 0.238 | [8] -0.01 | [9] 0.001 | entinostat -0.039 | vorinostat -0.072 | citarinostat 0 | silmitasertib 0.054 | [10] 0.24 | [11] -0.133

CD3EAP isoform 2 (UniProt O15446)
inactive: bafetinib 0.1 | [1] -0.061 | nilotinib 0.013 | [2] 0.156 | dasatinib 0.167 | [3] -0.167 | [4] -0.065 | [5] -0.086 | tipifarnib 0.032 | mubritinib -0.054 | [6] 0.181 | [7] 0.075 | [8] 0.187 | [9] 0.041 | entinostat -0.063 | vorinostat -0.014 | citarinostat -0.049 | silmitasertib 0.12 | [10] 0.161 | [11] -0.121

CCT7 (UniProt Q99832)
inactive: bafetinib 0.046 | [1] 0.036 | nilotinib -0.027 | [2] 0.022 | dasatinib 0.022 | [3] 0.004 | [4] 0.025 | [5] 0.001 | tipifarnib 0.021 | mubritinib -0.02 | [6] 0.023 | [7] 0.001 | [8] 0.005 | [9] 0.026 | entinostat 0.004 | vorinostat 0.019 | citarinostat 0 | silmitasertib -0.04 | [10] 0.044 | [11] -0.03
